{"sequences": {"note": "By UniProt entry, the sequences of proteins in these tests, tags left out. Where a name states a change or a piece, a line headed by the entry shows the natural chain unless it says otherwise.", "UniProt Q96AB3": "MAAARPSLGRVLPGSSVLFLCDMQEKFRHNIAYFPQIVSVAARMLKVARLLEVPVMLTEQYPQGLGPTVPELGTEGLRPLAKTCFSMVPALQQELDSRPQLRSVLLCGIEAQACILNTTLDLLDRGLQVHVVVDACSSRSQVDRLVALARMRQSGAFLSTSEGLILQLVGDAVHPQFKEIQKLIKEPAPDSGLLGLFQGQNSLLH", "UniProt Q8IY47": "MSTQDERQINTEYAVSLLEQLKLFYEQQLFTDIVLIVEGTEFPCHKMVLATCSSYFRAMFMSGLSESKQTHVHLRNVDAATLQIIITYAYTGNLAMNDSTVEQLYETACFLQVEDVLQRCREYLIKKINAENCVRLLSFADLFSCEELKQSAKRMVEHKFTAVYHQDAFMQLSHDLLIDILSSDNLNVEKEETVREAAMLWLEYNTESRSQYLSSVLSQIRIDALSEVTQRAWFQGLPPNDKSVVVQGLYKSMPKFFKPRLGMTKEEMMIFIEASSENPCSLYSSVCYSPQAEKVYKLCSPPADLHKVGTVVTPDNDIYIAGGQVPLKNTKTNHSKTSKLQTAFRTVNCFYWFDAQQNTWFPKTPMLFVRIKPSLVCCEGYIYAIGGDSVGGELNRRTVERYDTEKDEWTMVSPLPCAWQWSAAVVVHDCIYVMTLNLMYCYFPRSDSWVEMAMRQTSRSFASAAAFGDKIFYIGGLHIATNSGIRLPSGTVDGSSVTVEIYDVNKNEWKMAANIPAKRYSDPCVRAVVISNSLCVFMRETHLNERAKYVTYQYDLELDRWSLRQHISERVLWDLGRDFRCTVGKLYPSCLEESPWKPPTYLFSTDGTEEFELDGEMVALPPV", "UniProt Q7LBC6": "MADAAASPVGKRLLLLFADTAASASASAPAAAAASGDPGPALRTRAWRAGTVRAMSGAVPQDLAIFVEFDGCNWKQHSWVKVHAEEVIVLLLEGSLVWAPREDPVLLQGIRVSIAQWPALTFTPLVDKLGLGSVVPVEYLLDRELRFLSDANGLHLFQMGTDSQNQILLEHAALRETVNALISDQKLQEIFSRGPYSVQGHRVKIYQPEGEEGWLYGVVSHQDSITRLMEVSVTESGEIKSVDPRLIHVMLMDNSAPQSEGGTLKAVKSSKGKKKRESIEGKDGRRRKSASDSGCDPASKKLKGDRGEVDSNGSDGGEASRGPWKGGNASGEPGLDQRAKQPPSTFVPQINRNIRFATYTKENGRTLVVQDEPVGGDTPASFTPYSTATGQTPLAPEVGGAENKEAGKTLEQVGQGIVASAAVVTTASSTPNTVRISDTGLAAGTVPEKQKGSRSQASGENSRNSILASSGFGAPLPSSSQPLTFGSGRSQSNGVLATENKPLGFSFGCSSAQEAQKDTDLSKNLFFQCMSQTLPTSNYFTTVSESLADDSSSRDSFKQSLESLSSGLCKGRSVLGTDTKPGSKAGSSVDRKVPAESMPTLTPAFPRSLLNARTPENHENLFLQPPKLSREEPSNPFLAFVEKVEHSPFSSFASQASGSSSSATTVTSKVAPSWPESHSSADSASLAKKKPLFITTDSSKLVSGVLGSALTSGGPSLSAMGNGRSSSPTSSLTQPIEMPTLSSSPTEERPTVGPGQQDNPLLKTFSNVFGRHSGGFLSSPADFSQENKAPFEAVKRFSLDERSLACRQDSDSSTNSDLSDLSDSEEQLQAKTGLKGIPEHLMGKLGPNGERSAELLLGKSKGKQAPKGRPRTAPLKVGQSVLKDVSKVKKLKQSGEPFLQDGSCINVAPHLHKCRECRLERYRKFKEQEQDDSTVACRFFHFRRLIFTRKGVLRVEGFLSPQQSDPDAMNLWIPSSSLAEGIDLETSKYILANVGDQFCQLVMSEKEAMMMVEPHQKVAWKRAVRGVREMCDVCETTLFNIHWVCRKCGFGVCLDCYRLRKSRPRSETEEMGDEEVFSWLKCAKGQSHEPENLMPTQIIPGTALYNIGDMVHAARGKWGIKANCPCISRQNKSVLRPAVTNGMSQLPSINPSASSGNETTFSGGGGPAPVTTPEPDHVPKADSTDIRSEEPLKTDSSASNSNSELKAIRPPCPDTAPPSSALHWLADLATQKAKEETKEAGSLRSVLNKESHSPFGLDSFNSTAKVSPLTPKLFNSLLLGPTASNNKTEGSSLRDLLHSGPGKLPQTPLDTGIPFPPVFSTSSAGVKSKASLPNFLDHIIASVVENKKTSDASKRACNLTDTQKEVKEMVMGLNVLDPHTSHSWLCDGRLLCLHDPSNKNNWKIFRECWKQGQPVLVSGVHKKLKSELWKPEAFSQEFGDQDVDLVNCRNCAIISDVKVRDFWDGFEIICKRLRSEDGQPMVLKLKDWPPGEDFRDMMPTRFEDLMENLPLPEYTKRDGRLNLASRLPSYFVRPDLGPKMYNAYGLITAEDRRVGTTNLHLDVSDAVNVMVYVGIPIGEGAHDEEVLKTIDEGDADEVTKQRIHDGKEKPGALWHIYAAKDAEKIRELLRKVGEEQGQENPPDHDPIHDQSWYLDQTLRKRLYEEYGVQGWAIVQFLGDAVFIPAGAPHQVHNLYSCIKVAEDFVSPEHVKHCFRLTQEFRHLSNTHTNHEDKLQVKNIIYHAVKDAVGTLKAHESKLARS", "UniProt P17535": "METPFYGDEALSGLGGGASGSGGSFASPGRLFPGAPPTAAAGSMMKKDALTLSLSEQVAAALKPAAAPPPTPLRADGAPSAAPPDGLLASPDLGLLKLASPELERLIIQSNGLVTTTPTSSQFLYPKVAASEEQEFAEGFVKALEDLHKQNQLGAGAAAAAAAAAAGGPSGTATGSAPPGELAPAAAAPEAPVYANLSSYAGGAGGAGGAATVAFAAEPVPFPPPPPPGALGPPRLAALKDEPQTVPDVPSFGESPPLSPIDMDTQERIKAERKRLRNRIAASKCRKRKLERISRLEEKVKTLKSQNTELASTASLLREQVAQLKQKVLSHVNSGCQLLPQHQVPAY", "UniProt O75071": "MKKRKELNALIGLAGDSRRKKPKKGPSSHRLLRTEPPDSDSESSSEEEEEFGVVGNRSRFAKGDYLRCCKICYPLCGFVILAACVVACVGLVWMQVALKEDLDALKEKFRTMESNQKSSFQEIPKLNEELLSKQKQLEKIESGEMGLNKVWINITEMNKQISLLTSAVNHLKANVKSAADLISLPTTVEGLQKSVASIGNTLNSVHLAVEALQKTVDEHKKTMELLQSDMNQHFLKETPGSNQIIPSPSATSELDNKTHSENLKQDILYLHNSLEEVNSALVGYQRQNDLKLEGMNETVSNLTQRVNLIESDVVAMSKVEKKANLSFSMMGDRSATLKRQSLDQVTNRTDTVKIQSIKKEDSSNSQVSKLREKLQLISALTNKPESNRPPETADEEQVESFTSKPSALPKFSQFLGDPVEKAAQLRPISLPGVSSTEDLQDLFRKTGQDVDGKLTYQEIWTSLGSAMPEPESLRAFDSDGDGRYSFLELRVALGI", "UniProt P23458": "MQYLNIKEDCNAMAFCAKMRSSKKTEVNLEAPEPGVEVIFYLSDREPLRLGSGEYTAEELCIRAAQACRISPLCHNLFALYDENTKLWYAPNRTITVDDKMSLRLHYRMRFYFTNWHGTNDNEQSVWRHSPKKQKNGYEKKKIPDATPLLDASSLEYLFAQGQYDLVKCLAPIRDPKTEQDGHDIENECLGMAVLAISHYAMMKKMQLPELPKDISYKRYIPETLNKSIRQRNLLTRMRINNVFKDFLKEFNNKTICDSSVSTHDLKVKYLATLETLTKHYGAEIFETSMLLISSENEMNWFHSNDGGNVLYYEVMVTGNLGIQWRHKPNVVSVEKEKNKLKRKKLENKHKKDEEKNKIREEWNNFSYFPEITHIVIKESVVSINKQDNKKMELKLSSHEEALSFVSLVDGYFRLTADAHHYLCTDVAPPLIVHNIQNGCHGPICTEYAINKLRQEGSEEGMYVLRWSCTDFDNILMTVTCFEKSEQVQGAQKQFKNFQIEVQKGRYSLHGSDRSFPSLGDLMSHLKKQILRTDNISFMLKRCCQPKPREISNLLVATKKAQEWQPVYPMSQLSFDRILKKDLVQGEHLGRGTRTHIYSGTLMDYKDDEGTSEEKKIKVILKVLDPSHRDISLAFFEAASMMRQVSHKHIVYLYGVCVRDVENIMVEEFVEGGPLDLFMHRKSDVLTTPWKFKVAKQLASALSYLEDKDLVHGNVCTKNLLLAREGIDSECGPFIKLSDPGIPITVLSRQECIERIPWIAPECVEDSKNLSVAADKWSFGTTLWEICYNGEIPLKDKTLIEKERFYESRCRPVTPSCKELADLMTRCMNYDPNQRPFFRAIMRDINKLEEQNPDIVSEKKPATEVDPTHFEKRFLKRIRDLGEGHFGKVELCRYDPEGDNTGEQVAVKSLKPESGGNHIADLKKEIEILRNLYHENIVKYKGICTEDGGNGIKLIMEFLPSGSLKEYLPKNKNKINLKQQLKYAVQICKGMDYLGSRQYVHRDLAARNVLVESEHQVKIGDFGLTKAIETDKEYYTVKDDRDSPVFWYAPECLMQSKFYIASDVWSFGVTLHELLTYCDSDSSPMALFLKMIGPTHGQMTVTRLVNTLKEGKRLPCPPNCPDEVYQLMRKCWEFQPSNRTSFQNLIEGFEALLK", "UniProt Q7Z4H8": "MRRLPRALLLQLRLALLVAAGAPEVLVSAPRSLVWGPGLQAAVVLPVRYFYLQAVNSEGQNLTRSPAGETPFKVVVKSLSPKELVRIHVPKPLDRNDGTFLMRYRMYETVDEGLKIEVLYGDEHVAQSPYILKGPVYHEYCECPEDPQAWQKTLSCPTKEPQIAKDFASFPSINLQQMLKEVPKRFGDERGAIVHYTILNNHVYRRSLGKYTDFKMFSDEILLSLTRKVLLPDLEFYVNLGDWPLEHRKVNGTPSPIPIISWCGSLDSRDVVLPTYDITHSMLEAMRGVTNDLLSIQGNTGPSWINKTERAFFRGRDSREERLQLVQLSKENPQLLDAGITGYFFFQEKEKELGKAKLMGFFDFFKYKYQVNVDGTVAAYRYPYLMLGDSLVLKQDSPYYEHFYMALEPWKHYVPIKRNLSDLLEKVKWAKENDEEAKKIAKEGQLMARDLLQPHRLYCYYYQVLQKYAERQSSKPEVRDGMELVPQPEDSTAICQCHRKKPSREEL", "UniProt P00492": "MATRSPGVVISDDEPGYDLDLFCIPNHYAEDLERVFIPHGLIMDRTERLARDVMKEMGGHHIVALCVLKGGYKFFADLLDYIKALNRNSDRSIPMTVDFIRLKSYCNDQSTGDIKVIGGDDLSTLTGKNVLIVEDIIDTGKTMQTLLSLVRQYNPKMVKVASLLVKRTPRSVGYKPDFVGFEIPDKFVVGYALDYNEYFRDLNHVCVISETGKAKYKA", "UniProt Q9UI26": "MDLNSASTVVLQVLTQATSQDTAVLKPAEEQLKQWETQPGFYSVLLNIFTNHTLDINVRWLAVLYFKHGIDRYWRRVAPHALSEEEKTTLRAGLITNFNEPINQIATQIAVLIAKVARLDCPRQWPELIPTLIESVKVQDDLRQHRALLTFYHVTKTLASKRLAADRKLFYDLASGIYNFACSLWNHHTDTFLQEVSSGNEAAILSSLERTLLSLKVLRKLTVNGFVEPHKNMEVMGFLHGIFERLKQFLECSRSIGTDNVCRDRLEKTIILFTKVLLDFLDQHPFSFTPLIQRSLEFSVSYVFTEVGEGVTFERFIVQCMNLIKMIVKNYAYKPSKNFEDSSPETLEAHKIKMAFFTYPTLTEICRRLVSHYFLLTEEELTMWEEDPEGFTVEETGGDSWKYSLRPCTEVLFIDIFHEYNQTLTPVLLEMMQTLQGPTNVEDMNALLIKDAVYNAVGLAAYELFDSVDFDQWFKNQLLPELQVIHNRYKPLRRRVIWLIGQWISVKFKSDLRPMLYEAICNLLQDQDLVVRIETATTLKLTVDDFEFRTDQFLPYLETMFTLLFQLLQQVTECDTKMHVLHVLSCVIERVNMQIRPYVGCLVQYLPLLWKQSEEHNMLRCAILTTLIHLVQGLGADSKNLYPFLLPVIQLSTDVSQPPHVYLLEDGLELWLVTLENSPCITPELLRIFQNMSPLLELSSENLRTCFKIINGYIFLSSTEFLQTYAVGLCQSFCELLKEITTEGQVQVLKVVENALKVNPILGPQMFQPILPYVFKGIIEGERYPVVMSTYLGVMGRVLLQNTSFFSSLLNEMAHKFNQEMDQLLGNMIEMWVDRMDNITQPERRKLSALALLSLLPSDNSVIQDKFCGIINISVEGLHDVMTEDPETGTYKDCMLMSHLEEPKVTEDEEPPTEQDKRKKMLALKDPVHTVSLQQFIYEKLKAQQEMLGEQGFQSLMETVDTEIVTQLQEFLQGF", "UniProt Q9ULR0": "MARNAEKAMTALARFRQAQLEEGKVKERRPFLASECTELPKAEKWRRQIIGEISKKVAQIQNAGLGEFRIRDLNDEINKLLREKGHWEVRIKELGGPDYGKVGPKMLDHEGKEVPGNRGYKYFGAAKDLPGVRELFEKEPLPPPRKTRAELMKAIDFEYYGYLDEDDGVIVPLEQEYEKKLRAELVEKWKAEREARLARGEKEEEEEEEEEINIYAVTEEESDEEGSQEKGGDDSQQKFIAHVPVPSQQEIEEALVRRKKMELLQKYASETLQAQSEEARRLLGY"}, "source": "the supplement of paper PMC7666118", "note": "This is one part of the list.", "data": [{"compound": "COc1ccc(Cn2ccc3ccc(C(=O)NO)cc32)cc1", "assay": "dose-dependent thermal stabilisation call (2D-TPP, DLPTP, 10% FDR) (binary (1 = stabilised)); higher = stabilised by the compound", "conditions": "system: HL-60 intact cells; concentration range 0.04-10 µM", "values": [{"target": "ISOC2 (UniProt Q96AB3)", "dose-dependent thermal stabilisation call": "inactive: 0"}, {"target": "INTS1 (UniProt Q8N201)", "dose-dependent thermal stabilisation call": "inactive: 0"}, {"target": "ILF2 (UniProt Q12905)", "dose-dependent thermal stabilisation call": "inactive: 0"}, {"target": "KBTBD2 (UniProt Q8IY47)", "dose-dependent thermal stabilisation call": "inactive: 0"}, {"target": "IDH3B (UniProt O43837)", "dose-dependent thermal stabilisation call": "inactive: 0"}, {"target": "HPS1 (UniProt Q92902)", "dose-dependent thermal stabilisation call": "inactive: 0"}, {"target": "ICT1 (UniProt Q14197)", "dose-dependent thermal stabilisation call": "inactive: 0"}, {"target": "JMJD1B (UniProt Q7LBC6)", "dose-dependent thermal stabilisation call": "inactive: 0"}, {"target": "KBTBD8 (UniProt Q8NFY9)", "dose-dependent thermal stabilisation call": "inactive: 0"}, {"target": "HNRNPK (UniProt P61978)", "dose-dependent thermal stabilisation call": "inactive: 0"}, {"target": "JUND (UniProt P17535)", "dose-dependent thermal stabilisation call": "inactive: 0"}, {"target": "HSPH1 (UniProt Q92598)", "dose-dependent thermal stabilisation call": "inactive: 0"}, {"target": "KANK1 (UniProt Q14678)", "dose-dependent thermal stabilisation call": "inactive: 0"}, {"target": "IFI35 (UniProt P80217)", "dose-dependent thermal stabilisation call": "inactive: 0"}, {"target": "HTRA2 (UniProt O43464)", "dose-dependent thermal stabilisation call": "inactive: 0"}, {"target": "KCTD9 (UniProt Q7L273)", "dose-dependent thermal stabilisation call": "inactive: 0"}, {"target": "HNRNPD (UniProt Q14103)", "dose-dependent thermal stabilisation call": "inactive: 0"}, {"target": "HSPA4 (UniProt P34932)", "dose-dependent thermal stabilisation call": "inactive: 0"}, {"target": "INPP5D (UniProt Q92835)", "dose-dependent thermal stabilisation call": "inactive: 0"}, {"target": "ITGA6 (UniProt P23229)", "dose-dependent thermal stabilisation call": "inactive: 0"}, {"target": "KIAA0564 (UniProt A3KMH1)", "dose-dependent thermal stabilisation call": "inactive: 0"}, {"target": "KATNA1 (UniProt O75449)", "dose-dependent thermal stabilisation call": "inactive: 0"}, {"target": "HMGA1 (UniProt P17096)", "dose-dependent thermal stabilisation call": "inactive: 0"}, {"target": "KIAA0494 (UniProt O75071)", "dose-dependent thermal stabilisation call": "inactive: 0"}, {"target": "JAK1 (UniProt P23458)", "dose-dependent thermal stabilisation call": "inactive: 0"}, {"target": "KATNAL1 (UniProt Q9BW62)", "dose-dependent thermal stabilisation call": "inactive: 0"}, {"target": "KDELC2 (UniProt Q7Z4H8)", "dose-dependent thermal stabilisation call": "inactive: 0"}, {"target": "IMPDH1 (UniProt P20839)", "dose-dependent thermal stabilisation call": "inactive: 0"}, {"target": "JUN (UniProt P05412)", "dose-dependent thermal stabilisation call": "inactive: 0"}, {"target": "HPRT1 (UniProt P00492)", "dose-dependent thermal stabilisation call": "inactive: 0"}, {"target": "HMGN2 (UniProt P05204)", "dose-dependent thermal stabilisation call": "inactive: 0"}, {"target": "IKBKG (UniProt Q9Y6K9)", "dose-dependent thermal stabilisation call": "inactive: 0"}, {"target": "IKZF1 (UniProt Q13422)", "dose-dependent thermal stabilisation call": "inactive: 0"}, {"target": "IPO11 (UniProt Q9UI26)", "dose-dependent thermal stabilisation call": "inactive: 0"}, {"target": "IGF1R (UniProt P08069)", "dose-dependent thermal stabilisation call": "inactive: 0"}, {"target": "ISY1 (UniProt Q9ULR0)", "dose-dependent thermal stabilisation call": "inactive: 0"}, {"target": "HMG20B (UniProt Q9P0W2)", "dose-dependent thermal stabilisation call": "inactive: 0"}, {"target": "IMPDH2 (UniProt P12268)", "dose-dependent thermal stabilisation call": "inactive: 0"}]}]}
